Entries after “also recorded” stand apart in the source; their conditions may differ. Not every detail of the peptide structures is certain; ends, links or a residue may be inferred. Some entries repeat one wording, which the source may state once for all of them. Ends that are not written are not given here.
How the values were obtained:
[1] = tested on: HIV envelope-immune murine T cells (lymph node cells of gp160-immunized mice); assay: Lymph node T-cell proliferation assay ([3H]thymidine incorporation, stimulation index); type: cell-based, mouse
Description: B10.BR/SgSn (H-2^k) and B10.D2/nSn (H-2^d) mice were obtained from the Jackson Laboratories (Bar Harbor, Me.). B10.S(9R)/Sg (H-2^t4) and B10.A(5R)/SgSn (H-2^i5) mice were bred at the NIH breeding colony from breeding pairs obtained from D. J. Stimpfling (Great Falls, Mont.) and from Jackson Laboratories. Mice from the strain B10.S(9R) and B10.A(5R) were chosen because both I-A and I-E molecules of the H-2^s and H-2^b haplotypes are expressed in these recombinant strains, whereas I-E is not expressed in nonrecombinant H-2^b and H-2^s mice.
Mice were immunized s.c. with 10-30 ug of recombinant gp160 1:1 in complete Freund's adjuvant (CFA) at the base of the tail. (The dose was determined according to the purity of the gp160 preparation.) Eight to ten days later, periaortic and inguinal lymph nodes were removed and prepared in a single-cell suspension in complete T-cell medium in accordance with the method of Berkower et al, 1984, J. Immunol., 132:1370. Lymph node cells at 4×10^5 cells per well were added to each well of flat-bottomed 96-well microtiter plates (Costar, Cambridge, Mass.). The 44 peptides were added to the wells to make a final volume of 0.2 ml of medium, and each peptide was tested in triplicate. On the fourth day of culture, 1 uCi of [^3 H]thymidine (6.7 Ci/mmol; New England Nuclear, Boston, Mass.) was added to each well. Eighteen hours later, […] incorporation into DNA, as a measure of proliferation, was determined using liquid scintillation counting. The stimulation index represents a ratio of experimental counts over background counts without antigen.
Mice of the H-2^k, H-2^d, H-^i5, and H-2^t4 haplotypes were immunized s.c. in the tail with recombinant gp160 in CFA at a dose of 20-30 ug per mouse. Eight to ten days later the mice were sacrificed, the periaortic and inguinal lymph nodes were isolated, and proliferation of lymph node cells in the presence or absence of antigen was determined as described herein supra.

[2] = tested on: peripheral blood mononuclear cell; assay: Peripheral blood mononuclear cell proliferative response of peptide-immunized monkeys; type: cell-based, Rhesus monkeys; details: monkeys of group 1 (immunized with HP5, HP26, HP53)
[3] = B10.BR H-2^k mice, peptide 1 μM
[4] = B10.D2 H-2^d mice, peptide 2 μM
[5] = B10.S(9R) H-2^t4 mice, peptide 2 μM

Row | Compound | Response in dose response studies (in words) ([1]; B10.A(5R) H-2^i5 mice, FIG. 7) | S.I. (stimulation index, experimental cpm/control cpm) ([1]; B10.A(5R) H-2^i5 mice, peptide 1 μM) | Response in dose response studies (in words) ([1]; B10.BR H-2^k mice, FIG. 4) | S.I. (stimulation index, experimental cpm/control cpm) [1, 3] | S.I. (stimulation index, experimental cpm/control cpm) [1, 4] | S.I. (stimulation index, experimental cpm/control cpm) [1, 5] | Peripheral blood mononuclear cell proliferative response [2] | S.I. (stimulation index, experimental cpm/control cpm) ([1]; B10.A(5R) H-2^i5 mice, peptide 2 μM) | S.I. (stimulation index, experimental cpm/control cpm) ([1]; B10.BR H-2^k mice, peptide 2 μM) | T-cell proliferative response (in words) ([1]; H-2^d mice, initial screening) | T-cell proliferative response (in words) ([1]; H-2^d mice, initial screening, listed as env T1) | T-cell proliferative response (in words) ([1]; H-2^k mice, dose of 1 uM) | T-cell proliferative response (in words) ([1]; H-2^k mice, initial screening) | T-cell proliferative response (in words) ([1]; H-2^t4 mice, initial screening) | T-cell proliferative response (in words) ([1]; H-2^t4 mice, initial screening, listed as env T1)
1 | CC[C@H](C)[C@H](NC(=O)[C@H](C)NC(=O)[C@H](CCCNC(=N)N)NC(=O)[C@H](Cc1ccc(O)cc1)NC(=O)[C@H](C)NC(=O)CNC(=O)[C@H](CCC(N)=O)NC(=O)[C@@H](NC(=O)[C@@H](NC(=O)[C@H](CCC(=O)O)NC(=O)[C@@H](NC(=O)[C@@H](NC(=O)[C@H](CCCNC(=N)N)NC(=O)[C@@H](N)CC(=O)O)C(C)C)[C@@H](C)CC)C(C)C)C(C)C)C(=O)N[C@@H](CCCNC(=N)N)C(=O)O [HP-53, DRVIEVVQGAYRAIR] | maximal responses; also recorded: responded maximally | 5.39 | proliferative response primarily; also recorded: preferential response | 10.2 | 1.37 | .67 | good peripheral blood mononuclear cell proliferative response |  |  |  |  |  |  |  | 
2 | KQIINMWQEVGKAMYA [HP-26, KQIINMWQEVGKAMYA] |  |  |  | 2.94 | 3.57 | 3.40 | good peripheral blood mononuclear cell proliferative response | 1.19 | greater than 2 | Positive responses | responded | positive proliferative response | responded | did respond | responded
